Results reported in patent publication US20170291958A1, “Compositions and Methods For the Modulation of Ras Proteins” (NEW YORK UNIVERSITY, priority 2016, published 2017).
No constants are given. Whether binding was seen depends on the method and setting. Binding seen in cells or lysates may run through a third protein. Some results given as binding are weak or reduced against the parent protein; the word gives no strength. Tags and fused reporters may be left off the sequences shown.

Experiments:
[1] = target: K-RAS (Homo sapiens (Human)) (UniProt P01116); assay: co-immunoprecipitation with anti-Flag antibody, blot
[2] = target: GFP-HRAS (Homo sapiens (Human)) (UniProt P01112); assay: co-immunoprecipitation with anti-Flag antibody from HEK293T cells, anti-GFP blot

B1: Flag-PIASγ (enzyme, UniProt Q8N2W9 1-510, looked up, not shown: small tags and cut ends)
chain: MAAELVEAKNMVMSFRVSDLQMLLGFVGRSKSGLKHELVTRALQLVQFDCSPELFKKIKELYETRYAKKNSEPAPQPHRPLDPLTMHSTYDRAGAVPRTPLAGPNIDYPVLYGKYLNGLGRLPAKTLKPEVRLVKLPFFNMLDELLKPTELVPQNNEKLQESPCIFALTPRQVELIRNSRELQPGVKAVQVVLRICYSDTSCPQEDQYPPNIAVKVNHSYCSVPGYYPSNKPGVEPKRPCRPINLTHLMYLSSATNRITVTWGNYGKSYSVALYLVRQLTSSELLQRLKTIGVKHPELCKALVKEKLRLDPDSEIATTGVRVSLICPLVKMRLSVPCRAETCAHLQCFDAVFYLQMNEKKPTWMCPVCDKPAPYDQLIIDGLLSKILSECEDADEIEYLVDGSWCPIRAEKERSCSPQGAILVLGPSDANGLLPAPSVNGSGALGSTGGGGPVGSMENGKPGADVVDLTLDSSSSSEDEEEEEEEEEDEDEEGPRPKRRCPFQKGLVPAC
B1 was tested, and the binding [1] was “binds” and the binding [2] was “binds”.
